Assay results: article PMC7957392, “Yeast translation elongation factor eEF3 promotes late stages of tRNA translocation” (The EMBO Journal, 2021)
These are yes or no findings as the source states them, for the method shown. Binding calls can cover weak binding; strength is not graded here. Sequences can lack the tags named with a protein.

The chains behind the UniProt entries cited, without tags or fusion partners. Where a name states a change or a piece, a line headed by the entry shows the natural chain unless it says otherwise.
UniProt P07280: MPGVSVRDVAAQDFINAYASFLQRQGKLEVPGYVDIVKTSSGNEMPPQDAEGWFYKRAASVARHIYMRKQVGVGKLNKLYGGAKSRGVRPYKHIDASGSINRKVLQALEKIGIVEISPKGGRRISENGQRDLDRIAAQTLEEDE
UniProt P0C0W9: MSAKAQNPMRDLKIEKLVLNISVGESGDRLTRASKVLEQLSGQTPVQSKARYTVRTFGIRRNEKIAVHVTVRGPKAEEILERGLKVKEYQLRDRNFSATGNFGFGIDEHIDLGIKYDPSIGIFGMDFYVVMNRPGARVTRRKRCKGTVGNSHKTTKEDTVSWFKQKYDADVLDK

Target: T1, eEF3 (yeast translation elongation factor 3), C-terminally TAP-tagged (S. cerevisiae) (UniProt P16521)
T1 sequence: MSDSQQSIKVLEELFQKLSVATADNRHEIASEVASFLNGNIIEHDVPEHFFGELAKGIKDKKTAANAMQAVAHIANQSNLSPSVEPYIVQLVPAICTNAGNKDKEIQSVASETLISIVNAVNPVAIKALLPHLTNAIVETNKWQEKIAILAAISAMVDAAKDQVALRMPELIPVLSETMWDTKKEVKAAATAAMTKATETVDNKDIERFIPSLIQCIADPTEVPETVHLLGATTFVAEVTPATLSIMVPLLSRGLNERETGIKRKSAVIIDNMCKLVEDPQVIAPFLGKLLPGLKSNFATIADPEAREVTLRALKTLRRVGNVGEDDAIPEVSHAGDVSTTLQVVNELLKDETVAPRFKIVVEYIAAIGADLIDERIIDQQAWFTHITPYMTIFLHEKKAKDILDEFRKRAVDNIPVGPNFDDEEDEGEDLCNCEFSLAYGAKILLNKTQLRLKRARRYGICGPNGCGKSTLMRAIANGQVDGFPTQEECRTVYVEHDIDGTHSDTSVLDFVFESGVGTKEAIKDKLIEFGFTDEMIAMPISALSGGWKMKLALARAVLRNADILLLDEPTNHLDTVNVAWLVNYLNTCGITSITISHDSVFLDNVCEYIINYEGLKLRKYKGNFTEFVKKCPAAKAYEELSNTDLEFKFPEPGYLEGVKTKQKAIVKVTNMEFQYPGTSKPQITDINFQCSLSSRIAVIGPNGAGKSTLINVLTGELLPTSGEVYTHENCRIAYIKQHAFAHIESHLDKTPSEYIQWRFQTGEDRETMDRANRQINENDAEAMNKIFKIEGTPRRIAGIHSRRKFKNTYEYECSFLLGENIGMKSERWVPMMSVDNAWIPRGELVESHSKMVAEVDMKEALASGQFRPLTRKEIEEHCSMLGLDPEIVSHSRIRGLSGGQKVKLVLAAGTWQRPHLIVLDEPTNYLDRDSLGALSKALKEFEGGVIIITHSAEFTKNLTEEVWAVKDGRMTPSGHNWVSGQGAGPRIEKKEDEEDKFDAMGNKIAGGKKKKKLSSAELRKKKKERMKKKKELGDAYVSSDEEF
Assay: cryo-EM structure; native eEF3-80S complex from the eEF3-TAP pull-out, eluted with TEV protease in buffer 30 with 1 mM ADPNP, cross-linked with 0.02% glutaraldehyde; group I particles sorted with a mask on eEF3, 3.3 Å, multi-body refinement

| Substance | binding |
| --- | --- |
| ribosomal protein eS19 (40S subunit head) (from UniProt P07280) | binds |
| ribosomal protein uL5 (60S subunit) (from UniProt P0C0W9) | binds |
